According to the supplement of paper PMC8728848:
Some of the results follow.

Key:
Test in all cases: glycan array binding signal (z-score within array); higher = stronger binding
Settings in all cases: glycan notation: IUPAC condensed, linker removed
[1] = target: Gal(a1-3)Gal(b1-4)GlcNAc(b1-2)Man
Summary of the method: (§1)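 Glycan array data came from 3228 arrays in the Consortium for Functional Glycomics database, and only arrays with an available protein sequence were kept. Glycan names were put into IUPAC-condensed notation, and columns mapping to the same glycan were averaged. The binding signal is a within-array Z-score, averaged across arrays of one protein sequence run at different concentrations or buffers and across linkers. A negative Z-score can be read as non-binding.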

[2] = target: Gal(a1-3)Gal(b1-4)GlcNAc(b1-2)Man(a1-3)[Gal(a1-3)Gal(b1-4)GlcNAc(b1-2)Man(a1-6)]Man(b1-4)GlcNAc(b1-4)GlcNAc
Summary of the method: as §1

[3] = target: Gal(a1-3)Gal(b1-4)GlcNAc(b1-3)GalNAc
Summary of the method: as §1

[4] = target: Gal(a1-3)Gal(b1-4)GlcNAc(b1-6)GalNAc
Summary of the method: as §1

[5] = target: Gal(a1-3)Gal(b1-4)[Fuc(a1-3)]GlcNAc
Summary of the method: as §1

[6] = target: Gal(a1-3)Gal(b1-4)[Fuc(a1-3)]GlcNAc(b1-2)Man(a1-3)[Gal(a1-3)Gal(b1-4)[Fuc(a1-3)]GlcNAc(b1-2)Man(a1-6)]Man(b1-4)GlcNAc(b1-4)GlcNAc
Summary of the method: as §1

Gal(a1-3)GalNAc = target: Gal(a1-3)GalNAc
Summary of the method: as §1

[7] = target: Gal(a1-3)[Gal(a1-4)]Gal(b1-4)GlcNAc
Summary of the method: as §1

[8] = target: Gal(a1-4)Gal(b1-3)GlcNAc(b1-2)Man(a1-3)[Gal(a1-4)Gal(b1-3)GlcNAc(b1-2)Man(a1-6)]Man(b1-4)GlcNAc(b1-4)GlcNAc
Summary of the method: as §1

Gal(a1-4)Gal(b1-4)Glc = target: Gal(a1-4)Gal(b1-4)Glc
Summary of the method: as §1

Gal(a1-4)Gal(b1-4)GlcNAc = target: Gal(a1-4)Gal(b1-4)GlcNAc
Summary of the method: as §1

[9] = target: Gal(a1-4)Gal(b1-4)GlcNAc(b1-2)Man(a1-3)[Gal(a1-4)Gal(b1-4)GlcNAc(b1-2)Man(a1-6)]Man(b1-4)GlcNAc(b1-4)GlcNAc
Summary of the method: as §1

[10] = target: Gal(a1-4)Gal(b1-4)GlcNAc(b1-3)Gal(b1-4)Glc
Summary of the method: as §1

Gal(a1-4)GlcNAc = target: Gal(a1-4)GlcNAc
Summary of the method: as §1

Gal(a1-6)Glc = target: Gal(a1-6)Glc
Summary of the method: as §1

Gal(b1-2)Gal = target: Gal(b1-2)Gal
Summary of the method: as §1

Gal(b1-3)Gal = target: Gal(b1-3)Gal
Summary of the method: as §1

Gal(b1-3)Gal(b1-4)GlcNAc = target: Gal(b1-3)Gal(b1-4)GlcNAc
Summary of the method: as §1

Gal(b1-3)GalNAc = target: Gal(b1-3)GalNAc
Summary of the method: as §1

[11] = target: Gal(b1-3)GalNAc(a1-3)[Fuc(a1-2)]Gal(b1-4)Glc
Summary of the method: as §1

[12] = target: Gal(b1-3)GalNAc(a1-3)[Fuc(a1-2)]Gal(b1-4)GlcNAc
Summary of the method: as §1

Gal(b1-3)GalNAc(b1-3)Gal = target: Gal(b1-3)GalNAc(b1-3)Gal
Summary of the method: as §1

[13] = target: Gal(b1-3)GalNAc(b1-3)Gal(a1-4)Gal(b1-4)Glc
Summary of the method: as §1

[14] = target: Gal(b1-3)GalNAc(b1-4)Gal(b1-4)Glc
Summary of the method: as §1

[15] = target: Gal(b1-3)GalNAc(b1-4)[Neu5Ac(a2-3)]Gal(b1-4)Glc
Summary of the method: as §1

Gal(b1-3)GlcNAc = target: Gal(b1-3)GlcNAc
Summary of the method: as §1

[16] = target: Gal(b1-3)GlcNAc(a1-3)Gal(b1-4)GlcNAc
Summary of the method: as §1

[17] = target: Gal(b1-3)GlcNAc(a1-6)Gal(b1-4)GlcNAc
Summary of the method: as §1

Gal(b1-3)GlcNAc(b1-2)Man = target: Gal(b1-3)GlcNAc(b1-2)Man
Summary of the method: as §1

[18] = target: Gal(b1-3)GlcNAc(b1-2)Man(a1-3)[Gal(b1-3)GlcNAc(b1-2)Man(a1-6)]Man(b1-4)GlcNAc(b1-4)GlcNAc
Summary of the method: as §1

[19] = target: Gal(b1-3)GlcNAc(b1-2)Man(a1-3)[Gal(b1-3)GlcNAc(b1-2)Man(a1-6)]Man(b1-4)GlcNAc(b1-4)[Fuc(a1-6)]GlcNAc
Summary of the method: as §1

[20] = target: Gal(b1-3)GlcNAc(b1-2)Man(a1-3)[GlcNAc(b1-4)][Gal(b1-3)GlcNAc(b1-2)Man(a1-6)]Man(b1-4)GlcNAc(b1-4)GlcNAc
Summary of the method: as §1

[21] = target: Gal(b1-3)GlcNAc(b1-2)[Gal(b1-3)GlcNAc(b1-6)]Man(a1-6)[Gal(b1-3)GlcNAc(b1-2)Man(a1-3)]Man(b1-4)GlcNAc(b1-4)GlcNAc
Summary of the method: as §1

[22] = target: Gal(b1-3)GlcNAc(b1-3)Gal(b1-3)GlcNAc
Summary of the method: as §1

[23] = target: Gal(b1-3)GlcNAc(b1-3)Gal(b1-4)Glc
Summary of the method: as §1

[24] = target: Gal(b1-3)GlcNAc(b1-3)Gal(b1-4)GlcNAc
Summary of the method: as §1

[25] = target: Gal(b1-3)GlcNAc(b1-3)Gal(b1-4)GlcNAc(b1-2)Man(a1-3)[Gal(b1-3)GlcNAc(b1-3)Gal(b1-4)GlcNAc(b1-2)Man(a1-6)]Man(b1-4)GlcNAc(b1-4)GlcNAc
Summary of the method: as §1

[26] = target: Gal(b1-3)GlcNAc(b1-3)Gal(b1-4)GlcNAc(b1-2)[Gal(b1-3)GlcNAc(b1-3)Gal(b1-4)GlcNAc(b1-6)]Man(a1-6)[Gal(b1-3)GlcNAc(b1-3)Gal(b1-4)GlcNAc(b1-2)Man(a1-3)]Man(b1-4)GlcNAc(b1-4)[Fuc(a1-6)]GlcNAc
Summary of the method: as §1

[27] = target: Gal(b1-3)GlcNAc(b1-3)Gal(b1-4)GlcNAc(b1-3)Gal(b1-4)GlcNAc(b1-2)[Gal(b1-3)GlcNAc(b1-3)Gal(b1-4)GlcNAc(b1-3)Gal(b1-4)GlcNAc(b1-6)]Man(a1-6)[Gal(b1-3)GlcNAc(b1-3)Gal(b1-4)GlcNAc(b1-3)Gal(b1-4)GlcNAc(b1-2)Man(a1-3)]Man(b1-4)GlcNAc(b1-4)[Fuc(a1-6)]GlcNAc
Summary of the method: as §1

[28] = target: Gal(b1-3)GlcNAc(b1-3)Gal(b1-4)GlcNAc(b1-6)[Gal(b1-3)GlcNAc(b1-3)]Gal(b1-4)Glc
Summary of the method: as §1

[29] = target: Gal(b1-3)GlcNAc(b1-3)Gal(b1-4)[Fuc(a1-3)]GlcNAc
Summary of the method: as §1

[30] = target: Gal(b1-3)GlcNAc(b1-3)Gal(b1-4)[Fuc(a1-3)]GlcNAc(b1-6)[Gal(b1-3)GlcNAc(b1-3)]Gal(b1-4)Glc
Summary of the method: as §1

[31] = target: Gal(b1-3)GlcNAc(b1-3)GalNAc
Summary of the method: as §1

[32] = target: Gal(b1-3)GlcNAc(b1-6)Gal(b1-4)GlcNAc
Summary of the method: as §1

[33] = target: Gal(b1-3)GlcNAc(b1-6)GalNAc
Summary of the method: as §1

B1: Pwp1 (Candida glabrata) (protein)
chain: MGSSHHHHHHSSGLVPRGSHMASANPISITNVCQFPDNWARTAGFQATTVRLGLTIASNTYKELLNYPGLFNFATQKATVTQPNFSISGFPFFTGLYGLTVWPINLLVELQGYFVPPESGNYTFTLQGSDDAAILFFANPSTFACGSQNDWPQPREADITVTDTLVPSRTLYLVKGVAYPIRIAYYNGSGDGKLNVSFKDPSGTTHTDWKGYVWQYSNTCSTCTYT
glycan array binding signal (z-score) [1]: 0.772 | glycan array binding signal (z-score) [2]: -1.01 | glycan array binding signal (z-score) [3]: -1.48 | glycan array binding signal (z-score) [4]: 1.01 | glycan array binding signal (z-score) [5]: 1.03 | glycan array binding signal (z-score) [6]: 0.68 | glycan array binding signal (z-score) (Gal(a1-3)GalNAc): 0.085 | glycan array binding signal (z-score) [7]: -0.59 | glycan array binding signal (z-score) [8]: 0.075 | glycan array binding signal (z-score) (Gal(a1-4)Gal(b1-4)Glc): -0.356 | glycan array binding signal (z-score) (Gal(a1-4)Gal(b1-4)GlcNAc): -0.701 | glycan array binding signal (z-score) [9]: -1.92 | glycan array binding signal (z-score) [10]: 0.195 | glycan array binding signal (z-score) (Gal(a1-4)GlcNAc): 0.974 | glycan array binding signal (z-score) (Gal(a1-6)Glc): 1.13 | glycan array binding signal (z-score) (Gal(b1-2)Gal): 0.655 | glycan array binding signal (z-score) (Gal(b1-3)Gal): 0.861 | glycan array binding signal (z-score) (Gal(b1-3)Gal(b1-4)GlcNAc): -0.314 | glycan array binding signal (z-score) (Gal(b1-3)GalNAc): 0.164 | glycan array binding signal (z-score) [11]: 1.35 | glycan array binding signal (z-score) [12]: -1.15 | glycan array binding signal (z-score) (Gal(b1-3)GalNAc(b1-3)Gal): 0.028 | glycan array binding signal (z-score) [13]: -0.874 | glycan array binding signal (z-score) [14]: 1.92 | glycan array binding signal (z-score) [15]: -0.763 | glycan array binding signal (z-score) (Gal(b1-3)GlcNAc): 0.448 | glycan array binding signal (z-score) [16]: 0.906 | glycan array binding signal (z-score) [17]: 0.385 | glycan array binding signal (z-score) (Gal(b1-3)GlcNAc(b1-2)Man): 0.477 | glycan array binding signal (z-score) [18]: -1.52 | glycan array binding signal (z-score) [19]: -1.5 | glycan array binding signal (z-score) [20]: -0.457 | glycan array binding signal (z-score) [21]: -1.77 | glycan array binding signal (z-score) [22]: -1.43 | glycan array binding signal (z-score) [23]: 0.63 | glycan array binding signal (z-score) [24]: 1.46 | glycan array binding signal (z-score) [25]: 0.642 | glycan array binding signal (z-score) [26]: -0.463 | glycan array binding signal (z-score) [27]: 0.287 | glycan array binding signal (z-score) [28]: -0.984 | glycan array binding signal (z-score) [29]: 0.169 | glycan array binding signal (z-score) [30]: 0.649 | glycan array binding signal (z-score) [31]: -1.23 | glycan array binding signal (z-score) [32]: -1.46 | glycan array binding signal (z-score) [33]: 0.659
